Laboratory results taken from patent publication US20210401823A1, “INHIBITORS AND ANTAGONISTS OF GPR84 FOR THE TREATMENT OF ENDOMETRIOSIS” (Bayer Pharma Aktiengesellschaft, priority 2017, published 2021).

Assay: Determination of MCFA in endometrial tissue (GC/MS)
Details: n = 5
[1] = Lesions (ectopic endometrial tissue)

Structure (SMILES) | Concentrations of MCFA (Controls (eutopic endometrium)) [µM] | Concentrations of MCFA [1] [µM]
CCCCCCCCCCCCCC(=O)O [Myristic Acid] | 6.784 | 6.596
CCCCCCCCCC(=O)O [Decanoic acid, reference compound] | 0.3185 | 0.5103
